{
  "source": "patent US20160158317A1",
  "about": "“Antimicrobial Peptide Variants and Polynucleotides Encoding Same” (Adenium Biotech A/S, priority 2010, published 2016)",
  "key": {"Escherichia coli AID#172": {"tested_on": "Escherichia coli AID#172", "test": "Peritonitis/sepsis model in neutropenic NMRI mice, effect over time of 7.5 mg/kg (Example 3)", "format": "in vivo", "design": "key: Score 0: Healthy.; Score 1: Minor clinical signs of infection and inflammation e.g. observations of minor signs of distress or changed activity.; Score 2: Clear signs of infection like, social withdrawal, lack of curiosity, changed body position, piloerection, or changes in pattern of movement.; Score 3: Severe signs of infection like stiff movements, lack of curiosity, changed body position, piloerection, pain, or changes in pattern of movement.; Score 4: Severe pain and the mouse was sacrificed immediately to minimize the suffering of the animal.; Score 5: The mouse was dead", "conditions": "NZ17074 7.5 mg/kg single dose, individual mice; for Score T = 0 hour: score at start of treatment", "method": "The purpose of this study was to investigate the in vivo efficacy of NZ17074 following intravenous (i.v.) administration of a single dose of 7.5 mg/kg. The effect was tested against Escherichia coli AID#172 in the peritonitis model in neutropenic NMRI mice to avoid the use of mucin as normally applied in the murine peritonitis model. The mice were rendered neutropenic by cyclophosphamide injections. Treatment with 40 mg/kg meropenem was included as a positive control group and treatment with vehicle was included as a negative control group. The colony counts in peritoneal fluid and blood were determined at 2 and 5 hours after treatment.\n• 30 outbred, NMRI female mice, 28-32 grams (Harlan Scandinavia) • Escherichia coli AID#172 from Statens Serum Institute, Copenhagen, Denmark. Clinical isolate from a human wound from 2003. Multiresistant (Ampicillin, Ceftazidime, Aztreonam, Gentamicin, Ciprofloxacin) • NZ17074 in Ringer Acetate pH 6, 1.2 ml 0.75 mg/ml. […] Lot no. 09466C Date of expiration: 08-2013 • APODAN®(A-Pharma, 1 g cyclophosphamide) Batch nr. 928491 • Date of expiration: May 2012 • Water, sterile • 0.9% saline, sterile • 5% Horse Blood Agar plates • Lactose bromthymol blue agar plates\n(§1) The mice were rendered neutropenic by injecting 0.5 ml cyclophosphamide solution intraperitoneally 4 days (200 mg/kg) and 1 day (100 mg/kg) prior to inoculation.\nFresh overnight E. coli AID#172 colonies from a 5% Horse Blood Agar plate were suspended and diluted in sterile saline to approximately 2×10^6CFU/ml.\nOne hour before start of treatment (time −1 hour) mice were inoculated intraperitoneally with 0.5 ml of the E. coli suspension in the lateral lower quadrant of the abdomen.\nThe mice were clinically scored for signs of infection at the time of each sampling. • Score 0: Healthy. • Score 1: Minor clinical signs of infection and inflammation e.g. observations of minor signs of distress or changed activity. • Score 2: Clear signs of infection like, social withdrawal, lack of curiosity, changed body position, piloerection, or changes in pattern of movement. • Score 3: Severe signs of infection like stiff movements, lack of curiosity, forced ventilation, changed body position, piloerection, pain, or changes in pattern o movement. • Score 4: Severe pain and the mouse was sacrificed immediately to minimize the suffering of the animal. • Score 5: The mouse was dead.\nThe mice were treated i.v. in the lateral tail vein over approximately 30 seconds with a single dose of NZ17074, meropenem or vehicle at time 0 hour (see Table 1). The dosing was based on a mean weight of 30 g. Mice that weighed 28-32 g received 0.30 ml solution. […]\nColony counts were determined from blood and peritoneal fluid at 0, 2 and 5 hours after treatment according to Table 1. […]"}, "E. coli AID#172 [1]": {"tested_on": "E. coli AID#172", "test": "Neutropenic thigh infection model, dose-response and estimation of ED50 (Example 4)", "format": "in vivo, Escherichia coli", "method": "(§2) The purpose of this study was to investigate the dose-response relationship following intravenous (i.v.) administration of a single dose of NZ17074 ranging from 0.16-12 mg/kg. The effect was tested against E. coli AID#172 in the neutropenic thigh model. Treatment with 40 mg/kg meropenem was included as a positive control group. The colony counts in thighs were determined at 5 hours after treatment.\nThe thigh infection model is a well-recognized model for studies of antimicrobial effect and tissue penetration as described by S. Gudmundsson & H. Erlensdóttir: Handbook of Animal Models of Infection (1999), ed. by O. Zak & M. A. Sande, Academic Press, San Diego, US and in several publications. […]\nThe mice were observed during the study and scored 0-5 based on their behaviour and clinical signs. • Score 0: Healthy. • Score 1: Minor clinical signs of infection and inflammation e.g. observations of minor signs of distress or changed activity. • Score 2: Clear signs of infection like, social withdrawal, lack of curiosity, changed body position, piloerection, or changes in pattern of movement. • Score 3: Severe signs of infection like stiff movements, lack of curiosity, changed body position, piloerection, pain, or changes in pattern of movement. • Score 4: Severe pain and the mouse was sacrificed immediately to minimize the suffering of the animal. • Score 5: The mouse was dead. […]"}, "E. coli AID#172 [2]": {"tested_on": "E. coli AID#172", "test": "Neutropenic murine peritonitis/sepsis model, dose-response and estimation of ED50 (Example 2)", "format": "in vivo, Escherichia coli", "design": "key to Clinical score T = 0 hour / Clinical score T = 5 hours: Score 0: Healthy.; Score 1: Minor clinical signs of infection and inflammation e.g. observations of minor signs of distress or changed activity.; Score 2: Clear signs of infection like, social withdrawal, lack of curiosity, changed body position, piloerection, or changes in pattern of movement.; Score 3: Severe signs of infection like stiff movements, lack of curiosity, changed body position, piloerection, pain, or changes in pattern of movement.; Score 4: Severe pain and the mouse was sacrificed immediately to minimize the suffering of the animal.; Score 5: The mouse was dead", "conditions": "for Clinical score T = 0 hour: score at start of treatment; for Clinical score T = 0 hour / Clinical score T = 5 hours: individual mice", "method": "as §2, with “peritonitis” for “thigh”, “blood and peritoneal fluid” for “thighs”\nThe murine peritonitis/sepsis model is a well-recognized model for studies of antimicrobial activity as described by N. Frimodt-Møller and J. D. Knudsen in Handbook of Animal Models of Infection (1999), ed. by O. Zak & M. A. Sande, Academic Press, San Diego, US.\n• 30 outbred, NMRI female mice, 25-30 grams (Harlan Scandinavia) • E. coli AID#172 from Statens Serum Institute, Copenhagen, Denmark. Clinical isolate from a human wound from 2003. Multiresistant (Ampicillin, Ceftazidime, Aztreonam, Gentamicin, Ciprofloxacin) • NZ17074 in Ringer Acetate, pH 6: 1.2 mg/ml, 6.0 ml. The solution was stored at 4° C. until use. Analyses of the dose formulations used were performed after completion of the in-life phase of the study and gave the following results:\nas §1\nFresh overnight E. coli AID#172 colonies from a 5% Horse Blood Agar plate were suspended and diluted in sterile saline to approximately 2×10^6 CFU/ml. One hour before start of treatment (time −1 hr) mice were inoculated intraperitoneally with 0.5 ml of the E. coli suspension in the lateral lower quadrant of the abdomen. Approximately ½-1 hour after treatment, mice were treated orally with 45 microliters neurophen (20 mg ibuprofen/ml corresponding to 30 mg/kg) as a pain relief.\nThe mice were treated i.v. in the lateral tail vein over approximately 30 seconds with 10 ml/kg with a single dose of NZ17074, meropenem or vehicle at time 0 hour (see Table 1). The dosing was based on a mean weight of 30 g. Mice that weighed 28-32 g received 0.30 ml solution. Mice that weighed 27-28 g received 0.25 ml solution and mice that weighed 32.1-36 g received 0.35 ml solution.\nThe mice were observed during the study and scored 0-5 based on their behaviour and clinical signs. • Score 0: Healthy. • Score 1: Minor clinical signs of infection and inflammation e.g. observations of minor signs of distress or changed activity. • Score 2: Clear signs of infection like, social withdrawal, lack of curiosity, changed body position, piloerection, or changes in pattern of movement. • Score 3: Severe signs of infection like stiff movements, lack of curiosity, changed body position, piloerection, pain, or changes in pattern of movement. • Score 4: Severe pain and the mouse was sacrificed immediately to minimize the suffering of the animal. • Score 5: The mouse was dead.\nColony counts were determined from blood and peritoneal fluid at 0 and 5 hours. The mice were anaesthetized with CO2+O2 and blood was collected from axillary cutdown in 1.5 ml EDTA coated eppendorf tubes. The mice were sacrificed immediately after blood sampling and a total of 2 ml sterile saline was injected i.p. and the abdomen gently massaged before it was opened and fluid sampled with a pipette. Each sample was then 10 fold diluted in saline and 20-microliter spots were applied on blue agar plates. All agar plates were incubated 18-22 hours at 35° C. in ambient air.\nThe colony counts were performed at the start of treatment and 5 hours after treatment. The CFU numbers are log10 transformed before performing calculations."}, "[3]": {"conditions": "dose for 1 log reduction in bacterial load compared to start of treatment"}, "[4]": {"conditions": "dose for 3 log reduction in bacterial load compared to start of treatment"}},
  "note": "Values joined by “and” are separate entries in the source; they are usually repeats but may differ in a detail not shown here. Equal entries are not always repeated. At least one peptide structure holds a part that was inferred or is arguable (an end, a ring closure or a residue). Where a SMILES comes first, the peptide text is derived from it. Bridges are numbered along the chain shown (N, C = ends).",
  "data": [
    {"molecule": "CC(C)[C@@H]1NC(=O)CNC(=O)[C@H](CC(N)=O)NC(=O)[C@H](CCCNC(=N)N)NC(=O)[C@H](Cc2ccc(O)cc2)NC(=O)[C@H](C(C)C)NC(=O)[C@@H]2CSSC[C@H](NC(=O)[C@H](C(C)C)NC(=O)[C@H](CCCNC(=N)N)NC1=O)C(=O)N[C@@H](Cc1c[nH]cn1)C(=O)N[C@@H](CCCNC(=N)N)C(=O)N[C@@H](CCCNC(=N)N)C(=O)N[C@H](C(=O)N[C@@H](CC(N)=O)C(=O)O)CSSC[C@H](NC(=O)[C@H](Cc1ccccc1)NC(=O)CN)C(=O)N[C@@H](Cc1c[nH]c3ccccc13)C(=O)N[C@@H](CC(N)=O)C(=O)N[C@@H](C(C)C)C(=O)N2", "note": "[SEQ ID NO: 70] (H-GFCWNVCVYRNGVRVCHRRCN-OH; disulfide 3-20, 7-16 (inferred); N-terminus and C-terminus assumed)", "values": [
      {"measurement": "Score T = 0 hour", "setting": "Escherichia coli AID#172; group sampled T = 2", "result": 0},
      {"measurement": "Score T = 0 hour", "setting": "Escherichia coli AID#172; group sampled T = 5", "result": 0},
      {"measurement": "Score T = 2 hours", "setting": "Escherichia coli AID#172", "result": 1},
      {"measurement": "Score T = 5 hours", "setting": "Escherichia coli AID#172; 7.5 mg/kg", "result": "1 (2×) and 0"},
      {"measurement": "1 log killing, thigh", "setting": "E. coli AID#172 [1]; [3]", "result": 6.1, "unit": "mg/kg"},
      {"measurement": "2 and 3 log killing, thigh", "setting": "E. coli AID#172 [1]; single i.v. dose up to 12 mg/kg", "result": "not obtained"},
      {"measurement": "Clinical score T = 0 hour", "setting": "E. coli AID#172 [2]; NZ17074 0.16 mg/kg single dose group", "result": 1},
      {"measurement": "Clinical score T = 5 hours", "setting": "E. coli AID#172 [2]; NZ17074 0.16 mg/kg single dose, 0.16 mg/kg", "result": "1 (2×) and 0"},
      {"measurement": "Clinical score T = 0 hour", "setting": "E. coli AID#172 [2]; NZ17074 0.30 mg/kg single dose group", "result": 1},
      {"measurement": "Clinical score T = 5 hours", "setting": "E. coli AID#172 [2]; NZ17074 0.30 mg/kg single dose, 0.3 mg/kg", "result": "0 (2×) and 1"},
      {"measurement": "Clinical score T = 0 hour", "setting": "E. coli AID#172 [2]; NZ17074 0.75 mg/kg single dose group", "result": 1},
      {"measurement": "Clinical score T = 5 hours", "setting": "E. coli AID#172 [2]; NZ17074 0.75 mg/kg single dose, 0.75 mg/kg", "result": "0 and 1 (2×)"},
      {"measurement": "Clinical score T = 0 hour", "setting": "E. coli AID#172 [2]; NZ17074 1.5 mg/kg single dose group", "result": 1},
      {"measurement": "Clinical score T = 5 hours", "setting": "E. coli AID#172 [2]; NZ17074 1.5 mg/kg single dose, 1.5 mg/kg", "result": "0 (2×) and 1"},
      {"measurement": "Clinical score T = 0 hour", "setting": "E. coli AID#172 [2]; NZ17074 3.0 mg/kg single dose group", "result": 1},
      {"measurement": "Clinical score T = 5 hours", "setting": "E. coli AID#172 [2]; NZ17074 3.0 mg/kg single dose, 3 mg/kg", "result": "1 (2×) and 0"},
      {"measurement": "Clinical score T = 0 hour", "setting": "E. coli AID#172 [2]; NZ17074 6.0 mg/kg single dose group", "result": 1},
      {"measurement": "Clinical score T = 5 hours", "setting": "E. coli AID#172 [2]; NZ17074 6.0 mg/kg single dose", "result": 1},
      {"measurement": "Clinical score T = 0 hour", "setting": "E. coli AID#172 [2]; NZ17074 12 mg/kg single dose group", "result": 1},
      {"measurement": "Clinical score T = 5 hours", "setting": "E. coli AID#172 [2]; NZ17074 12 mg/kg single dose, 12 mg/kg", "result": "1 and 0 (2×)"},
      {"measurement": "1 log killing, blood", "setting": "E. coli AID#172 [2]; [3]", "result": 0.25, "unit": "mg/kg"},
      {"measurement": "1 log killing, peritoneal fluid", "setting": "E. coli AID#172 [2]; [3]", "result": 1.11, "unit": "mg/kg"},
      {"measurement": "2 log killing, peritoneal fluid", "setting": "E. coli AID#172 [2]; dose for 2 log reduction in bacterial load compared to start of treatment", "result": 2.95, "unit": "mg/kg"},
      {"measurement": "2 log killing, blood", "setting": "E. coli AID#172 [2]; dose for 2 log reduction in bacterial load compared to start of treatment, listed as NZ17074", "result": "2.75 mg/kg and 2.76 mg/kg"},
      {"measurement": "3 log killing, blood", "setting": "E. coli AID#172 [2]; [4]", "result": 3.78, "unit": "mg/kg"},
      {"measurement": "3 log killing, peritoneal fluid", "setting": "E. coli AID#172 [2]; [4]", "result": 4.73, "unit": "mg/kg"}
    ]}
  ]
}
